Results are given in words; binding and its absence hold for the method and conditions named. In cells and extracts the contact can be indirect. Some results given as binding are weak or reduced against the parent protein; the word gives no strength. Sequences can lack the tags named with a protein.
Biological target: T1, GST-LCoR (human) (UniProt Q96JN0)
T1 sequence: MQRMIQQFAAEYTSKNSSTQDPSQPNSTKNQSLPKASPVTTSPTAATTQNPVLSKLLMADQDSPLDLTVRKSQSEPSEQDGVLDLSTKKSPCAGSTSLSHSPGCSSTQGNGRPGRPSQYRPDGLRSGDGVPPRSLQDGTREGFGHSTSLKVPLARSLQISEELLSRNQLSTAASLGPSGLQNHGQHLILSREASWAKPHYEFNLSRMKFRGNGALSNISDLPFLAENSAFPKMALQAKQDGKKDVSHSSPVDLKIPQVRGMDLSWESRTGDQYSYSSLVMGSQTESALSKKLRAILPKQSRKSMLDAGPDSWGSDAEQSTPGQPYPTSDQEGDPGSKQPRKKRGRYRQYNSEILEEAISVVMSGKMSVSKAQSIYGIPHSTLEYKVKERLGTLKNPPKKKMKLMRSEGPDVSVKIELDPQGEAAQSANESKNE
Assay: GST pull-down, in vitro translated ERα (HEG0) on GST-LCoR

Chains of the proteins cited; added tags and fusions are not shown.
UniProt P03372: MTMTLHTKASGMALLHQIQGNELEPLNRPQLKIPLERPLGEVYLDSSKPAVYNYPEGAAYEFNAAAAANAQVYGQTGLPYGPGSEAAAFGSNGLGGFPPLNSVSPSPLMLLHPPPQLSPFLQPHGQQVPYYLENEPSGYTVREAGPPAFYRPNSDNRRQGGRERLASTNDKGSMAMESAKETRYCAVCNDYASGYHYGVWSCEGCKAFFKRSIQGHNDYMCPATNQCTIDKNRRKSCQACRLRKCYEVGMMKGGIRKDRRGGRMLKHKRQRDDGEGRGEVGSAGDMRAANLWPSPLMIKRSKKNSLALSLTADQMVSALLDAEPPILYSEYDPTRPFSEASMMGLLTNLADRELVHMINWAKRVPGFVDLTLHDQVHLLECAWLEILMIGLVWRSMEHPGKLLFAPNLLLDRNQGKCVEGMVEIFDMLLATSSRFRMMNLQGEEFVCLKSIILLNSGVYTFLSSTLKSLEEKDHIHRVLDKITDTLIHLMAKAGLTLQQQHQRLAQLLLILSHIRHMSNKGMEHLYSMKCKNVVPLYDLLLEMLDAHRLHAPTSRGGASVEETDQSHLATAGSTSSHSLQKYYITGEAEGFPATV

binding: binds
Substance: ERα (estrogen receptor α) (from UniProt P03372 1-595)
